Reference: article PMC7332966
Results are given in words; binding and its absence hold for the method and conditions named. Some entries that bind do so weakly or less than the wild type. Where a sequence is shown, tags or fusion partners need not be part of it.

Amino acid sequences for entries named in this document (tags omitted).
UniProt Q8TAF3: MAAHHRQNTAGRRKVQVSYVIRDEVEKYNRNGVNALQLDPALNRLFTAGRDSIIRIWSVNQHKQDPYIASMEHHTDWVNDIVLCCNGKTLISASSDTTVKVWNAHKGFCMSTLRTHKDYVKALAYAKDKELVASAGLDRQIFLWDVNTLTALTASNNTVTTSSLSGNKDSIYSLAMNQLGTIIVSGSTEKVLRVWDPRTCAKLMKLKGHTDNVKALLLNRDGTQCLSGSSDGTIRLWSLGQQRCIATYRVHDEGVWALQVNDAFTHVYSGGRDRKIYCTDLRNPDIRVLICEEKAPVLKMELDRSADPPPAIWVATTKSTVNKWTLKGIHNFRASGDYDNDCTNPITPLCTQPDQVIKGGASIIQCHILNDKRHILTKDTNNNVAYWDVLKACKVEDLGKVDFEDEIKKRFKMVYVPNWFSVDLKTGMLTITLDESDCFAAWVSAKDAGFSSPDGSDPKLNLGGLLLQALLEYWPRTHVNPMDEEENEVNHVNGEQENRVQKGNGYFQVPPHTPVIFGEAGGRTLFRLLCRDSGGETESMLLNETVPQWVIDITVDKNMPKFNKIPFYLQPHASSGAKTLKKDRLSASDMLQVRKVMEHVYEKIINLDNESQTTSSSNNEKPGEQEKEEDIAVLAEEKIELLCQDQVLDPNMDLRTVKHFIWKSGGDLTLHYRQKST

Target: T1, His6-TEV-tagged USP1 (G670A/G671A mutated auto-cleavage site) (human) (UniProt O94782)
T1 sequence: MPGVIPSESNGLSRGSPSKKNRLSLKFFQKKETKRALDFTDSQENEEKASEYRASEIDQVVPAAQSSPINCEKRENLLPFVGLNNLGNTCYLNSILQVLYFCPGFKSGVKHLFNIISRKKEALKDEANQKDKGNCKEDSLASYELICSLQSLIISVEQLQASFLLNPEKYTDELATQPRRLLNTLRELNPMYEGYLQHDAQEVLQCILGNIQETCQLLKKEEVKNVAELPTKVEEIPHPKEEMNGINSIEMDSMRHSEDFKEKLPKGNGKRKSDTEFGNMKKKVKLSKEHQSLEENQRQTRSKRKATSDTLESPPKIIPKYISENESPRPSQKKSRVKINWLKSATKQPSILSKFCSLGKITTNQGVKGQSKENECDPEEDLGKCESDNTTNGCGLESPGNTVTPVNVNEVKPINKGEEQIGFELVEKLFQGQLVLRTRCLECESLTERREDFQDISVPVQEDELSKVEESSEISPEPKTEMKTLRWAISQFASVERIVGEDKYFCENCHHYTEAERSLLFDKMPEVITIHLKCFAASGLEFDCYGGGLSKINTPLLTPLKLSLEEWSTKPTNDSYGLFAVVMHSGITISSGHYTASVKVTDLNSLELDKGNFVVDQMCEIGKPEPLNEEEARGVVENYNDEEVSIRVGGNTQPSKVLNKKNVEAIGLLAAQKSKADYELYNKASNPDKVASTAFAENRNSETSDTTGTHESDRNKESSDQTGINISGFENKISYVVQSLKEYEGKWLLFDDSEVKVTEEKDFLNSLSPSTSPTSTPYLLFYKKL
Assay: co-purification (Ni-NTA, anion exchange, gel filtration); USP1 and UAF1 co-expressed in Sf21 cells; complex bound to Ni-NTA through His6-TEV-USP1, ResourceQ, TEV cleavage, flow-through of Ni-NTA, Superdex 200 Increase in 20 mM Tris pH 8.0, 150 mM NaCl, 5% glycerol, 5 mM DTT; 4°C

- binding: binds
Substance: UAF1 (from UniProt Q8TAF3 1-677)
